Laboratory results from article PMC6403362.
No constants are given. Whether binding was seen depends on the method and setting. In cells and extracts the contact can be indirect. Some entries that bind do so weakly or less than the wild type. Where a sequence is shown, tags or fusion partners need not be part of it.

Molecular target: T1, GFP-MTR4 (UniProt P42285)
T1 sequence: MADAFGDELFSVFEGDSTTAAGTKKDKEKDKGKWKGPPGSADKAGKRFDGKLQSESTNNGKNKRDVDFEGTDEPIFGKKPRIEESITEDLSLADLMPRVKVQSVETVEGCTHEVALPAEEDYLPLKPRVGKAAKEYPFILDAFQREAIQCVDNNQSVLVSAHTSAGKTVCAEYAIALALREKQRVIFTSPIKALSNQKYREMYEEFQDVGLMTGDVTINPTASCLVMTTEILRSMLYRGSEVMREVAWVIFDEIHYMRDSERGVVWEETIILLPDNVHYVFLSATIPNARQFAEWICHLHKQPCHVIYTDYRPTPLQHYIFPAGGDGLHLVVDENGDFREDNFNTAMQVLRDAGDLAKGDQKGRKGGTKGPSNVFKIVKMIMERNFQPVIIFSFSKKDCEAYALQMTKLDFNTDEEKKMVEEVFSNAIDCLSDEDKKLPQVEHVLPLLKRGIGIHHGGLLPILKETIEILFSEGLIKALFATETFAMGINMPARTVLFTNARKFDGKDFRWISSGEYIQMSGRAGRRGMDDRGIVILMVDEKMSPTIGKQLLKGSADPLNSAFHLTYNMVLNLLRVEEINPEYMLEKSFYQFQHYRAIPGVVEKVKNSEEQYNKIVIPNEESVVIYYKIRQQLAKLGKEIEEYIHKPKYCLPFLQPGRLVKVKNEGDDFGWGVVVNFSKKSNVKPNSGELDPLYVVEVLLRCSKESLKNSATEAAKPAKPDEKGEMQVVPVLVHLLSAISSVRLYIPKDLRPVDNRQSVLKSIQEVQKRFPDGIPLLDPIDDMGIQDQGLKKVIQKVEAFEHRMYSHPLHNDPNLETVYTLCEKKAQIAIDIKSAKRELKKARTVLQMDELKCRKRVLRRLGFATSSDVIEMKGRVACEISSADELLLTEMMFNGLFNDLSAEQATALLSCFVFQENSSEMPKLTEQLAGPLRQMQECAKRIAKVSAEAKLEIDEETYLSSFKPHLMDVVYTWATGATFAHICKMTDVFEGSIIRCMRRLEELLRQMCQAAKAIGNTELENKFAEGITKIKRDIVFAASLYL
Assay: co-IP; GFP-MTR4 transfected into HCT116:TIR1, DIS3-AID or EXOSC10-AID cells (EXOSC10-AID cells treated or not treated with auxin, 2 h); lysis in 150mM NaCl, 2.5mM MgCl2, 20mM Tris.HCl pH7.5, 1% Triton X-100 with Benzonase; GFP-TRAP beads 1 hour at 4°C; western blotting with α-GFP, α-EXOSC2, α-EXOSC10

B1: EXOSC10-AID (enzyme, UniProt Q01780 1-885)
chain: MAPPSTREPRVLSATSATKSDGEMVLPGFPDADSFVKFALGSVVAVTKASGGLPQFGDEYDFYRSFPGFQAFCETQGDRLLQCMSRVMQYHGCRSNIKDRSKVTELEDKFDLLVDANDVILERVGILLDEASGVNKNQQPVLPAGLQVPKTVVSSWNRKAAEYGKKAKSETFRLLHAKNIIRPQLKFREKIDNSNTPFLPKIFIKPNAQKPLPQALSKERRERPQDRPEDLDVPPALADFIHQQRTQQVEQDMFAHPYQYELNHFTPADAVLQKPQPQLYRPIEETPCHFISSLDELVELNEKLLNCQEFAVDLEHHSYRSFLGLTCLMQISTRTEDFIIDTLELRSDMYILNESLTDPAIVKVFHGADSDIEWLQKDFGLYVVNMFDTHQAARLLNLGRHSLDHLLKLYCNVDSNKQYQLADWRIRPLPEEMLSYARDDTHYLLYIYDKMRLEMWERGNGQPVQLQVVWQRSRDICLKKFIKPIFTDESYLELYRKQKKHLNTQQLTAFQLLFAWRDKTARREDESYGYVLPNHMMLKIAEELPKEPQGIIACCNPVPPLVRQQINEMHLLIQQAREMPLLKSEVAAGVKKSGPLPSAERLENVLFGPHDCSHAPPDGYPIIPTSGSVPVQKQASLFPDEKEDNLLGTTCLIATAVITLFNEPSAEDSKKGPLTVAQKKAQNIMESFENPFRMFLPSLGHRAPVSQAAKFDPSTKIYEISNRWKLAQVQVQKDSKEAVKKKAAEQTAAREQAKEACKAAAEQAISVRQQVVLENAAKKRERATSDPRTTEQKQEKKRLKISKKPKDPEPPEKEFTPYDYSQSDFKAFAGNSKSKVSSQFDPNKQTPSGKKCIAAKKIKQSVGNKSMSFPTGKSDRGFRYNWPQR
  binding: binds
